Measurements taken from publication PMC7925594.
Results are given in words; binding and its absence hold for the method and conditions named. Binding seen in cells or lysates may run through a third protein. Binding calls can cover weak binding; strength is not graded here.

The chains behind the UniProt entries cited, without tags or fusion partners. Where a name states a change or a piece, a line headed by the entry shows the natural chain unless it says otherwise.
UniProt Q9Y6K9: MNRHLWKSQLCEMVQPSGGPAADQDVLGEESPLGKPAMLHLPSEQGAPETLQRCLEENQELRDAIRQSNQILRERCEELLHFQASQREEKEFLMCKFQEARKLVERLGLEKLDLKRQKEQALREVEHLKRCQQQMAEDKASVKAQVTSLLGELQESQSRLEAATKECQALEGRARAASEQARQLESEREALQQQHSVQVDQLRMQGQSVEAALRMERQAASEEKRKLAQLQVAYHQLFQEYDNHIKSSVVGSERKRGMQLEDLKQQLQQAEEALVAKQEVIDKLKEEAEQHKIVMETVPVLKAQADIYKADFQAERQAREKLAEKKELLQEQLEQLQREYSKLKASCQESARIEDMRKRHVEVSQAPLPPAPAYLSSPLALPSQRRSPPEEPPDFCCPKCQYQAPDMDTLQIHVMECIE
UniProt O75113: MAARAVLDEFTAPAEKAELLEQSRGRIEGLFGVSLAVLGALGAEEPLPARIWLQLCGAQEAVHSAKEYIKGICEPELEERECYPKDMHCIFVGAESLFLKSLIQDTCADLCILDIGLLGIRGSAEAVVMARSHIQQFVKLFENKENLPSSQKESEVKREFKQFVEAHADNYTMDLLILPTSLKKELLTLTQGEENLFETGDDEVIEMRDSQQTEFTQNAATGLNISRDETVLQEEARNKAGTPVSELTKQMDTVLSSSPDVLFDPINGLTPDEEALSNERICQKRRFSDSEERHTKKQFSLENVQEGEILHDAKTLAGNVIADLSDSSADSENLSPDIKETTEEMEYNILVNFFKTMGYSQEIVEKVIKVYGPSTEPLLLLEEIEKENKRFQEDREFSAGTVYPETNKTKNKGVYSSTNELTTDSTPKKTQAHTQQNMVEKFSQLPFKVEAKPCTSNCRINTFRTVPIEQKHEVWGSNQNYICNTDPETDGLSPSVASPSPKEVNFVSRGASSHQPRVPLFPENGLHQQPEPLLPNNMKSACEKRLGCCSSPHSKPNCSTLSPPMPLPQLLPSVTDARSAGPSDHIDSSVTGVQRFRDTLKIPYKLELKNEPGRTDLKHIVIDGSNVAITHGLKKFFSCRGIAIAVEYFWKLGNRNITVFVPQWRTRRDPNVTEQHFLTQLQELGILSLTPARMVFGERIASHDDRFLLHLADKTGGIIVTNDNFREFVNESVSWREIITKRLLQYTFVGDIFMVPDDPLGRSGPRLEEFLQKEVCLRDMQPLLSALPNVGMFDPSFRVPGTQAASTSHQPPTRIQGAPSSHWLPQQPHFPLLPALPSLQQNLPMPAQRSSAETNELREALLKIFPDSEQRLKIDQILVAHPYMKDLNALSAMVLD

Biological target: Flag-tagged NEMO (UniProt Q9Y6K9)
Test: co-IP; HEK293T or N4BP1-/- HEK293T cells co-transfected with HA-N4BP1 (or deletion mutants) and Flag-NEMO (or deletion mutants); NP-40 lysis buffer; immunoprecipitation and immunoblot

binding: binds
Substance: HA-N4BP1 with NYN domain deletion (from UniProt O75113)
